Measurements published in patent publication US6777536.
No constants are given. Whether binding was seen depends on the method and setting. A result given as binding can be weak or reduced; the word gives no strength. Tags and fused reporters may be left off the sequences shown.

Biological target: cell surface ligand expressed endogenously in the rat liver stromal cell line BRL-3A (rat)
Experiment: panel of cell lines treated with AP fusion supernatant at 1,000 OD/hr/ml, colorimetric assay of bound AP activity

B1: mek4-AP soluble receptor fusion protein (mouse Mek4 receptor extracellular domain fused to secreted human placental alkaline phosphatase) (receptor, not shown: large carriers)
chain: ELSPQPSNEVNLLDSKTIQGELGWISYPSHGWEEISGVDEHYTPIRTYQVCNVMDHSQNNWLRTNWVPRNSAQKIYVELKFTLRDCNSIPLVLGTCKETFNLYYMESDDHGVKFREHQFTKIDTIAADESFTQMDLGDRILKLNTEIREVGPVNKKGFYLAFQDVGACVALVSVRVYFKKCPFTVKNLAMFPDTVPMDSQSLVEVRGSCVNNSKEEDPPRMYCSTEGEWLVPIGKCTCNAGYEERGFICQACRPGFYKASDGAAKCAKCPPHSSTQEDGSMNCRCENNYFRAEKDPPSMACARPPSAPRNVISNINETSVILDWSWPLDTGGRKDITFNIICKKCGWNVRQCEPCSPNVRFLPRQLGLTNTTVTVTDLLAHTNYTFEIDAVNGVSELSSPPRQYAAVSITTNQAAPSPVMTIKKDRTSRNSISLSWQEPEHPNGIILDYEVKYYQKQEQETSYTILRARGTNVTISSLKPDTTYVFQIRARTAAGYGTNSRKFEFETSPDSFSISGENSHGSSG
binding: binds
